Results are given in words; binding and its absence hold for the method and conditions named. Binding can be weak; no strength is given.
Target: p97 receptor on isolated human brain capillaries (human)
Test: [125I]-p97 ligand binding on 100 µg human brain capillaries, cross-linking, non-reducing SDS-PAGE, autoradiography (FIG. 31)

binding: binds
B1: recombinant human melanotransferrin (p97) (ligand, UniProt P08582 20-709, looked up)
chain: GMEVRWCATSDPEQHKCGNMSEAFREAGIQPSLLCVRGTSADHCVQLIAAQEADAITLDGGAIYEAGKEHGLKPVVGEVYDQEVGTSYYAVAVVRRSSHVTIDTLKGVKSCHTGINRTVGWNVPVGYLVESGRLSVMGCDVLKAVSDYFGGSCVPGAGETSYSESLCRLCRGDSSGEGVCDKSPLERYYDYSGAFRCLAEGAGDVAFVKHSTVLENTDGKTLPSWGQALLSQDFELLCRDGSRADVTEWRQCHLARVPAHAVVVRADTDGGLIFRLLNEGQRLFSHEGSSFQMFSSEAYGQKDLLFKDSTSELVPIATQTYEAWLGHEYLHAMKGLLCDPNRLPPYLRWCVLSTPEIQKCGDMAVAFRRQRLKPEIQCVSAKSPQHCMERIQAEQVDAVTLSGEDIYTAGKTYGLVPAAGEHYAPEDSSNSYYVVAVVRRDSSHAFTLDELRGKRSCHAGFGSPAGWDVPVGALIQRGFIRPKDCDVLTAVSEFFNASCVPVNNPKNYPSSLCALCVGDEQGRNKCVGNSQERYYGYRGAFRCLVENAGDVAFVRHTTVFDNTNGHNSEPWAAELRSEDYELLCPNGARAEVSQFAACNLAQIPPHAVMVRPDTNIFTVYGLLDKAQDLFGDDHNKNGFKMFDSSNYHGQDLLFKDATVRAVPVGEKTTYRGWLGLDYVAALEGMSSQQC

Reference: US20030129186A1
